From publication PMC10907165, “Discovery and structural characterization of the D-box, a conserved TonB motif that couples an inner-membrane motor to outer-membrane transport” (The Journal of Biological Chemistry, 2024) come the findings set out here.

Chains of the proteins cited; added tags and fusions are not shown. Lines headed by an entry give the natural chain unless they say otherwise; changes in a name come on top.
UniProt P0ABV2: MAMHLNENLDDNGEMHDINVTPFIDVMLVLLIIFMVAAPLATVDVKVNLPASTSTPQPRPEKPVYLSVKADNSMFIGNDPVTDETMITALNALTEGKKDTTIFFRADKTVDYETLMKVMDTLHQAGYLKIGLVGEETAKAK

These are yes or no findings as the source states them, for the method shown.

The assay deals with ExbD L132Q mutant (periplasmic domain) (E. coli) (UniProt P0ABV2). Nature of the assay: condition: 1 mM peptide injected into 100 uM ExbD protein; ITC; D-box peptide (1 mM) injected into 100 uM ExbD protein at 288 K; 10 mM MES pH 5.3, 60 mM NaCl; two-state binding model; both purified.

B1: D-box peptide (residues 43 to 54 of E. coli TonB) (peptide)
peptide: QPISVTMVTPAD
notes: TonB, E. coli, residues 43-54, holds the D-box motif; The description of the crystal structure numbers the peptide Gln-55 to Thr-63, that is 12 higher than the TonB numbers; also called TonB D-box peptide; source: synthetic peptide (VWR Scientific)
As to B1, the binding entry is reported as “no binding”.
